Experimental data published in PubChem BioAssay AID328 (DTP/NCI, 2004).
The list does not hold the whole screen: it gathers tests that were run many times, whatever their T/C, doses with no T/C, and many T/C values between a quarter and a half above the control. Other doses and runs of a compound stand elsewhere. T/C gives the treated animals as a percentage of the vehicle group. Some doses have a count of surviving animals in place of a T/C: the source holds a T/C of zero for them, seemingly a mark for toxic or unscored doses. Some survivor counts are full or nearly so, which does not show that the dose was tolerated: survival well below the control is almost never listed, so the zero probably covers shortened survival too. Survivors were counted at the toxicity check, usually on the fifth day, unless a day is given; later deaths do not show. Schedules are NCI's codes, taken here to give the interval after Q, in days (D) or hours (H), and the number of doses after X. For survival time, this PubChem deposit counts one and a half times the control or more as active, and values a quarter to a half above the control carry no call in these data; other NCI protocols may use other cut-offs.

Tested on: BDF1 mice, P388 leukemia ip, median survival T/C
Assay: NCI In Vivo Anticancer Drug Screen. Data for tumor model P388 Leukemia (intraperitoneal) in B6D2F1 (BDF1) mice
Conditions: T/C endpoint: median survival time, higher T/C = longer survival
Description: The antitumor activity of compounds was measured in mice bearing transplantable tumors. Survival or tumor size were measured and the results are expressed as the measurement made in the treated group (T) divided by the measurement made in the vehicle treated control group (C). The tumor model used in this assay is P388 Leukemia (intraperitoneal) in B6D2F1 (BDF1) mice

`NC(Cn1cc(N(CCCl)CCCl)c(=O)[nH]c1=O)C(=O)O` (centres undefined) was tested, and the survivor count (dose: 48.0 mg/kg/injection, schedule: Q01DX009 (ip), vehicle: saline) was 6 of 6.
`CC1CN1P(=S)(Oc1ccccc1)N1CC1C` (centres undefined) was tested, and the T/C (dose: 132.0 mg/kg/injection, schedule: Q01DX009 (ip), vehicle: saline with Tween-80) was 125 % of control and the survivor count (dose: 600.0 mg/kg/injection, schedule: Q01DX009 (ip), vehicle: saline with Tween-80) was 1 of 6.
For `C/C(=N/N(C)C)c1ccc([N+](=O)[O-])cc1`, the survivor count (dose: 100.0 mg/kg/injection, schedule: Q01DX009 (ip), vehicle: Klucel (hydroxypropylcellulose) (HPC)) was 0 of 6, the survivor count (dose: 200.0 mg/kg/injection, schedule: Q01DX009 (ip), vehicle: Klucel (hydroxypropylcellulose) (HPC)) was 0 of 6 and the survivor count (dose: 225.0 mg/kg/injection, schedule: Q04DX003 (ip), vehicle: saline with Tween-80) was 0 of 6. For the same compound, the survivor count (dose: 340.0 mg/kg/injection, schedule: Q04DX003 (ip), vehicle: saline with Tween-80) was 4 of 6.
For `Cc1ccc(C(=O)N(O)c2ccccc2)cc1`, the survivor count (dose: 400.0 mg/kg/injection, schedule: Q01DX009 (ip), vehicle: saline with Tween-80) was 5 of 6.
With `CCCCCCC1OCC2(CO1)COC(CCCCCC)OC2` (centres undefined) the survivor count (dose: 400.0 mg/kg/injection, schedule: Q04DX003 (ip), vehicle: saline with Tween-80) was 6 of 6.
